Measured values as given in ChEMBL document CHEMBL3580598, “Limonoids and Triterpenoids from Dysoxylum mollissimum var. glaberrimum” (J Nat Prod, 2015).

Tested on: A549
Experiment: Cytotoxicity against human A549 cells by SRB protein staining method
Assay type: functional, cell-based

Structure (SMILES): COc1cccc2c1C(=O)c1c(O)c3c(c(O)c1C2=O)C[C@@](O)(C(=O)CO)C[C@@H]3O[C@H]1C[C@H](N)[C@H](O)[C@H](C)O1 [DOXORUBICIN]
- IC50: 1200 nM
